Screen size: about 410,000 compounds; about 310 (0.076%) were called active. The shares of active, inactive and inconclusive entries below differ from those in the screen. The call rests on the fitted dose curve; in most records, active means well fitted activation curve with a large enough effect; inconclusive means small, poorly fitted or top-dose-only effect, or another doubt; inactive means no such curve, though single readings can be large or run the other way. A potency beside an inconclusive call is a rough fit, not a confirmed value.
What follows are compounds tested against Parathyroid hormone/parathyroid hormone-related peptide receptor (Homo sapiens) (UniProt Q03431) (assay: qHTS for PTHR1 Agonists: Primary Screen). Details: HEK293 GP2 PTHR1 cells, GloSensor cAMP luminescence, 1 h; activation: at 115 µM (top of the series) unless noted; series mostly up to 115 µM.
Summary of the method: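 HEK-293-derived GP2 cells expressing PTHR1 and a GloSensor cAMP reporter, 3,000/well, plated overnight, given luciferin plus IBMX (each 0.5 mM as added) for 1 h at 37 °C, then compound for 1 h at 37 °C. Luminescence was read after 15 min at room temperature.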
Further: nearly all actives have a fitted effect of over 55% in size.
Potency means the concentration at half of the fitted maximal effect.

The chains behind the UniProt entries cited, without tags or fusion partners. Where a name states a change or a piece, a line headed by the entry shows the natural chain unless it says otherwise.
UniProt Q03431: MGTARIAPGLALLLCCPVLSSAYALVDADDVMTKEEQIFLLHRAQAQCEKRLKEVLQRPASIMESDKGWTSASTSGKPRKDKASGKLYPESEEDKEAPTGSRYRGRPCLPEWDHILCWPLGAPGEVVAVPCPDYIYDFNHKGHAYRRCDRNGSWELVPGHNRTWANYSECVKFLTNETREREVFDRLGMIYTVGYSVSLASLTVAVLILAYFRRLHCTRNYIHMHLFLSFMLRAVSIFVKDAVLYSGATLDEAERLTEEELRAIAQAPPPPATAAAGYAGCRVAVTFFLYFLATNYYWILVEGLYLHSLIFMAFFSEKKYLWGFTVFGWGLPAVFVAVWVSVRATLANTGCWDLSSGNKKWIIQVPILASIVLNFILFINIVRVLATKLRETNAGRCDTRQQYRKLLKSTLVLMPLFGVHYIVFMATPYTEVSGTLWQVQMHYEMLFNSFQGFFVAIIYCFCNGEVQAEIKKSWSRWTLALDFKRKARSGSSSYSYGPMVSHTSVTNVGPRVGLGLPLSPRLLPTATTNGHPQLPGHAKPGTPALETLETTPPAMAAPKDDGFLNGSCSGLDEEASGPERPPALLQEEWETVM

SMILES	Potency	activation	outcome
Clc1cccc(CN2CCc3c([nH]c4ccccc34)C2)c1	inconclusive: 25.1 µM [activator, single point]	–	–
O=C(c1ccc(F)cc1F)N1CCC(c2nc(-c3ccc(S(=O)(=O)N4CCCC4)cc3)no2)CC1	–	inconclusive: 32% [activator]	–
Cc1cccc(N2CCN(C(c3cccs3)c3nnnn3C(C)(C)C)CC2)c1C (centres undefined)	inconclusive: 35.5 µM [activator, single point]	–	–
O=C(N1CCOCC1)N1CCN(S(=O)(=O)c2cccc([N+](=O)[O-])c2)CC1	inconclusive: 15.8 µM [activator, partial curve]	–	–
Cc1ccc(N(C(=O)c2csnn2)C(C(=O)NC2CCCCC2)c2ccco2)cc1 (centres undefined)	inconclusive: 50.1 µM [activator, partial curve, poor fit]	–	–
Cc1ccc(CN2CCC2(C)C(=O)NC(C)C)cc1 (centres undefined)	inconclusive: 11.2 µM [activator, single point]	–	–
CN(C)CCNC(=O)C1CCN(c2ncnc3c2nc2n3CCCCC2)CC1	inconclusive: 126 µM [activator, single point]	–	–
c1coc(-c2nc3nc4ccccc4nc3n2CC2CCCO2)c1 (centres undefined)	inconclusive: 5.01 µM [activator, partial curve, poor fit]	–	–
CCCCC(=O)Nc1ccc(C(=O)NNC(=S)NC(=O)c2ccco2)cc1	–	inconclusive: 31.8% [activator]	–
CCc1ccc(C(=O)CCC(=O)Nc2cccc(S(=O)(=O)N3CCCCC3)c2)cc1	–	inconclusive: 40.2% [activator]	–
CCN(CCCNC(=O)CC(C(=O)N1CCc2ccccc21)n1ccnc1)c1cccc(C)c1 (centres undefined)	inconclusive: 44.7 µM [activator, single point]	–	–
CCOC(=O)c1[nH]c2ccccc2c1NC(=O)c1cc(OC)cc(OC)c1	–	inactive: -22.6%	–
CC1CCCC(C)N1NC(=O)Cc1ccccc1 (centres undefined)	inconclusive: 112 µM [activator, single point]	–	–
CCOC(=O)c1c(CSc2ccccc2)n(C)c2ccc(O)cc12	–	inconclusive: -30.5% [activator]	–
O=C(O)C1CCN(c2ccc(S(=O)(=O)N3CCCCC3)cc2[N+](=O)[O-])CC1	–	–	inactive
O=C(C(c1ccccc1)c1ccccc1)N1CC[C@@]2(O)CCCC[C@H]2C1	inconclusive: 112 µM [activator, single point]	–	–
CCCc1nc2c([nH]1)c(=O)n(C)c(=O)n2C	–	inconclusive: 55.6% [activator]	–
O=C(O)c1cc(-n2nnnc2SCc2ccccc2F)ccc1Cl	–	inconclusive: 60.8% [activator]	–
CCN1/C(=C\C(=S)Nc2ccccc2)Sc2ccccc21	–	inactive: -21.3%	–
COc1ccc(Cl)cc1NC(=O)Cn1ncc2c3ccccc3n(Cc3ccccc3)c2c1=O	–	inconclusive: 34.1% [activator]	–
O=C(NN=C1CCCCCC1)C(=O)Nc1cccc(Br)c1	–	inactive: -22.4%	–
COc1cc(OC)cc(-c2c(-c3ccc(F)cc3)c3cc(-c4cccc5[nH]ccc45)ccc3n2C)c1	–	inactive: -29.5%	–
CCCCNc1ncnc2c1cnn2-c1ccccc1	–	inactive: -4.39% [at 57.5 µM]	–

3 entries from above, reformatted.
SMILES,Potency,activation,outcome
Clc1cccc(CN2CCc3c([nH]c4ccccc34)C2)c1,"inconclusive: 25.1 µM [activator, single point]",–,–
CC1CCCC(C)N1NC(=O)Cc1ccccc1 (centres undefined),"inconclusive: 112 µM [activator, single point]",–,–
O=C(O)c1cc(-n2nnnc2SCc2ccccc2F)ccc1Cl,–,inconclusive: 60.8% [activator],–

Continued.

SMILES	Potency	activation	outcome
COc1ccccc1C1CCN(Cc2ccccc2)CC1	inconclusive: 50.1 µM [activator, partial curve, poor fit]	–	–
CN(C)CCOCCOc1ccc(Cl)cc1C(C)(C)C	inconclusive: 31.6 µM [activator, partial curve, poor fit]	–	–
CC(C)(C)NCC(O)Cn1cc(C=O)c2ccccc21 (centres undefined)	inconclusive: 2.82 µM [activator, full curve, poor fit]	–	–
CCOc1ccccc1NC(=O)Cn1c(=O)n(Cc2nc(C)no2)c(=O)c2ccccc21	–	inconclusive: 18.7% [activator]	–
COc1ccc(S(=O)(=O)Nc2cccc(S(=O)(=O)N3CCCCCC3)c2)cc1	–	inactive: -26.4%	–
CC(c1ccccc1)N1CCC(CNC(=S)Nc2cccc(Cl)c2)C1 (centres undefined)	–	–	inactive
COc1ccc(-c2cc(C(=O)Nc3c(C)nn(Cc4ccccc4Cl)c3C)no2)cc1	inconclusive: 1.78 µM [activator, partial curve, poor fit]	–	–
CCC(=O)NC(c1ccco1)c1cc(Br)c2cccnc2c1O (centres undefined)	–	inconclusive: 30.5% [activator]	–
CS(=O)(=O)N1CCN(C(=O)C2c3ccccc3Oc3ccccc32)CC1	inconclusive: 0.153 µM [activator, full curve]	–	–
O=C(Oc1cccc2cccnc12)c1ccco1	–	–	inactive [at 57.5 µM]
COc1cccc(C(CC(=O)O)NS(=O)(=O)c2ccc3c(c2)N(C(C)=O)CC(C)O3)c1 (centres undefined)	inconclusive: 28.2 µM [activator, single point]	–	–
Cc1ccc(S(=O)(=O)NC(=O)NCc2ccco2)cc1	–	inconclusive: 36.3% [activator]	–
CC(=O)Nc1cc(C(=O)NCc2ccc(F)cc2)ccc1S(=O)(=O)c1ccc(C)cc1	inconclusive: 35.5 µM [activator, full curve, poor fit]	–	–
CC(C)(C)OC(=O)N1CCCN(C(=O)Nc2cccc(Cl)c2)CC1	inconclusive: 3.16 µM [activator, full curve, poor fit]	–	–
CCN(CC)S(=O)(=O)c1cccc(C(=O)OCC(=O)Nc2ccccc2OC(F)F)c1	inconclusive: 35.5 µM [activator, single point]	–	–
Cc1ncoc1C(=O)NC1CCCc2c1cnn2-c1ccc(C(C)(C)C)cc1 (centres undefined)	–	inactive: -55%	–
COc1ccc(C)cc1NC(=S)N1CC(C)OC(C)C1 (centres undefined)	–	inactive: -11.5%	–
O=Cc1cccnc1SCc1ccccc1	–	inactive: -6.91%	–
COc1ccc(C(=O)NCC(O)CN2CCOCC2)cc1[N+](=O)[O-] (centres undefined)	–	inconclusive: -89.4% [activator]	–
CCOC(=O)c1c(C)oc2nc(C)nc(NCCCN3CCN(c4cc(C)ccc4C)CC3)c12	inconclusive: 141 µM [activator, single point]	–	–
COC(=O)c1cc(S(=O)(=O)NCC2CCN(Cc3cccc(F)c3)CC2)cn1C	inconclusive: 17.8 µM [activator, partial curve, poor fit]	–	–
Cc1ccc(C)c(NC(=O)C(c2ccccc2)N2CCN(CC(=O)N3CCOCC3)CC2)c1 (centres undefined)	–	inconclusive: 68.9% [activator]	–
Cn1c(=O)[nH]c(=O)c2c1nc(N1CCCCC1)n2CC(O)CN1CCCCC1 (centres undefined)	inconclusive: 50.1 µM [activator, partial curve, poor fit]	–	–

SMILES	Potency	activation	outcome
O=C(NCC(O)COc1ccc([N+](=O)[O-])cc1)c1ccccc1 (centres undefined)	–	inconclusive: 33.8% [activator]	–
O=C(CN1CCN(S(=O)(=O)c2ccc(Br)cc2)CC1)Nc1ccc2c(c1)OCO2	–	inconclusive: -43.1% [activator] [at 57.5 µM]	–
CCn1c(COc2ccccc2C)nc2ccccc21	–	inconclusive: -74.2% [activator] [at 57.5 µM]	–
C[C@H](NC(=O)[C@H]1N2C(=O)c3ccccc3C2SC1(C)C)C(=O)N1CCN(C)CC1 (some centres undefined)	inconclusive: 141 µM [activator, single point]	–	–
C[C@@H]1CN([C@@H](C)CO)S(=O)(=O)c2ccc(Br)cc2O[C@H]1CN(C)C(=O)Nc1ccc(C(F)(F)F)cc1	–	–	inactive
O=C(OC(C(=O)NC1CCCC1)c1ccccn1)c1cccs1 (centres undefined)	inconclusive: 7.94 µM [activator, partial curve, poor fit]	–	–
CC(NS(=O)(=O)c1ccc(F)cc1)C(c1cccs1)N1CCN(C)CC1 (centres undefined)	inconclusive: 31.6 µM [activator, single point]	–	–
O=C(NCc1cccc(F)c1)c1ccccc1NC(=O)c1nsc2ccccc12	inconclusive: 35.5 µM [activator, partial curve, poor fit]	–	–
CCCOc1ccc(C(=O)CCC(=O)OCC(=O)N2CC(=O)Nc3ccccc32)cc1	inconclusive: 39.8 µM [activator, single point]	–	–
CCCN1CCc2nc(N3CCN(C)CC3)ncc2C1	–	inconclusive: 32.3% [activator]	–
Cc1ccc2nc(-c3ccccn3)c(Nc3ccccc3C)n2c1	inactive	–	–
c1cncc(-c2nnc3sc(-c4ccco4)nn23)c1	inconclusive: 1.22 µM [activator, partial curve, poor fit]	–	–
O=C(CSc1nnc(CCc2nc3ccccc3[nH]2)n1-c1ccccc1)NCc1ccco1	inconclusive: 3.16 µM [activator, single point]	–	–
O=C(NC(=S)Nc1ccc(Oc2ccc(Cl)cc2)cc1)c1ccccc1	–	inactive: -18.3% [at 57.5 µM]	–
Cc1cc(C(=O)N2CCC(C(F)(F)F)n3nccc32)on1 (centres undefined)	inconclusive: 5.01 µM [activator, partial curve, poor fit]	–	–
COc1cc([N+](=O)[O-])cc([N+](=O)[O-])c1NC(=O)N1CCOCC1	–	inconclusive: 73.6% [activator]	–
COc1ccc(C(=O)NC(C(=O)N2CCN(C/C=C/c3ccccc3)CC2)C(C)C)cc1 (centres undefined)	–	–	inactive
CCN(CC)S(=O)(=O)c1ccc(C(=O)NCC2(N3CCOCC3)CCCCC2)cc1	inconclusive: 141 µM [activator, single point]	–	–
CCOC(=O)CC1C(=O)NCCN1C(=O)c1ccc(C)cc1 (centres undefined)	–	–	inactive
COCCNC(=O)CN(c1ccc(OC)c(OC)c1)S(=O)(=O)c1ccc(C)cc1	inconclusive: 50.1 µM [activator, single point]	–	–
COc1ccc(C(=O)c2ccccc2O)c(O)c1	–	inactive: -14.6%	–
CCOc1ccc(C(=O)COC(=O)Cn2cnc3c2c(=O)n(C)c(=O)n3C)cc1	–	inconclusive: 33.4% [activator]	–
COc1ccc(C(CNC(=O)c2cccnc2SC)N2CCOCC2)cc1 (centres undefined)	–	inconclusive: 30.8% [activator]	–
